Experimental data: PubChem BioAssay AID1259308 (NCATS, 2017)

Purpose: 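Candidate targets for better recombinant protein yield in mammalian cells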 (primary screen)
Cells: human HEK293 embryonic kidney cells stably expressing firefly luciferase (HEK-CMV-Luc2-Hygro)
Reagent: single siRNA against human genes, 0.8 pmol siRNA per well
Timing: 72 h
Measurement: 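Luciferase light (ONE-Glo) measured on one replicate plate set and viability (CellTiter-Glo) on the other, scaled to a negative control siRNA, with robust z-scores and luciferase per cell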
Direction: total luciferase, z-score and total luciferase, % of control: higher = more reporter protein produced; luciferase per cell, z-score: higher = more reporter output per viable cell; viable cells, % of control: higher = more viable cells
Active means: 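An siRNA counts as active if its total luciferase robust z-score exceeds 3; genes with two or more such siRNAs out of three were retested with fresh siRNAs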
Calls: active = raised luciferase; inactive = no rise
This is a random part of about 59,000 deposited reagents. About 1,510 of them (2.6%) were called active. 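Calls use total luciferase alone and ignore viability, so some active siRNAs may act by altering cell number.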 Unmarked entries are inactive. The numbers tell different reagents against one gene apart.

Target gene | reagent no. | total luciferase, z-score | total luciferase, % of control | luciferase per cell, z-score | viable cells, % of control
CCDC149 | 1 | -1.43 | 53.5 | -2.27 | 109
CCDC149 | 2 | -0.491 | 72.1 | -0.718 | 97.4
CCDC149 | 3 | -1.36 | 54.9 | -1.53 | 91.8
RAB3A | 1 | -1.26 | 56.8 | -1.14 | 85.6
RAB3A | 2 | 0.283 | 87.5 | -0.746 | 119
RAB3A | 3 | -0.529 | 71.4 | -0.879 | 101
NAB2 | 1 | 0.223 | 86.3 | -0.631 | 114
NAB2 | 2 | -0.091 | 80.1 | -0.51 | 102
NAB2 | 3 | -0.129 | 79.3 | -0.292 | 95.7
EEF1B2P6 | 1 | 2.23 | 126 | 1.64 | 91.6
EEF1B2P6 | 2 | -0.421 | 73.5 | -0.404 | 91.4
EEF1B2P6 | 3 | -0.456 | 72.8 | -0.271 | 87.4
OSBPL10 | 1 | -2.01 | 42 | -0.205 | 49.5
OSBPL10 | 2 | 0.187 | 85.6 | 0.101 | 93.1
OSBPL10 | 3 | -0.557 | 70.8 | -0.00251 | 79.2
PPIL2 | 1 | -0.444 | 73.1 | -0.6 | 95.6
PPIL2 | 2 | -0.549 | 71 | 0.158 | 76.1
PPIL2 | 3 | 0.228 | 86.4 | -0.13 | 99.9
P2RX6 | 1 | -0.0451 | 81 | -0.842 | 113
P2RX6 | 2 | 0.615 | 94.1 | 0.16 | 101
P2RX6 | 3 | -0.33 | 75.3 | -0.0028 | 84.2
LPAR4 | 1 | 0.146 | 84.8 | 0.0458 | 93.6
LPAR4 | 2 | 0.436 | 90.6 | -0.0903 | 104
LPAR4 | 3 | -1.84 | 45.3 | -1.33 | 71.9
EDEM2 | 1 | 0.781 | 97.4 | 1.53 | 72.8
EDEM2 | 2 | -0.513 | 71.7 | -1.11 | 107
EDEM2 | 3 | 2.35 | 129 | 1.19 | 105
DNAH6 | 1 | 0.297 | 87.8 | 0.426 | 87.7
DNAH6 | 2 | -0.515 | 71.6 | -0.228 | 85
DNAH6 | 3 | -0.527 | 71.4 | -0.144 | 82.9
LINC00687 | 1 | 0.123 | 84.3 | 0.642 | 79.6
LINC00687 | 2 | -0.245 | 77 | 0.01 | 85.8
LINC00687 | 3 | -0.487 | 72.2 | -1.02 | 106
TRIP11 | 1 | -0.221 | 77.5 | -0.672 | 103
TRIP11 | 2 | 0.424 | 90.3 | -0.174 | 106
TRIP11 | 3 | -0.261 | 76.7 | -0.847 | 107
ANXA11 | 1 | -1.19 | 58.3 | -1.25 | 90.6
ANXA11 | 2 | 0.107 | 84 | -0.185 | 98.6
ANXA11 | 3 | -0.949 | 63 | -0.621 | 82.9

In a second layout: entries from further up
| Target gene | reagent no. | total luciferase, z-score | total luciferase, % of control | luciferase per cell, z-score | viable cells, % of control |
| --- | --- | --- | --- | --- | --- |
| EEF1B2P6 | 3 | -0.456 | 72.8 | -0.271 | 87.4 |
| OSBPL10 | 1 | -2.01 | 42 | -0.205 | 49.5 |
| OSBPL10 | 2 | 0.187 | 85.6 | 0.101 | 93.1 |
